From article PMC7819943, “Rice protein-binding microarrays: a tool to detect cis-acting elements near promoter regions in rice” come the findings set out here.

By UniProt entry, the sequences of proteins in these tests, tags left out.
UniProt Q0JBA9, entry or part of it: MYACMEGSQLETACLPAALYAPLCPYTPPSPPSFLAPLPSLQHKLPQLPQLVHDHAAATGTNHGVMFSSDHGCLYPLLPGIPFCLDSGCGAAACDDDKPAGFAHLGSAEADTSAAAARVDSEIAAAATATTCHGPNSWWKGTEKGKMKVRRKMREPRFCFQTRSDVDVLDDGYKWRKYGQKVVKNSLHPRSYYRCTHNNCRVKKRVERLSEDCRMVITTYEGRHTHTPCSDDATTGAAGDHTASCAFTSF

The other results are listed elsewhere or left out.

The target of the assay is OsWRKY34 (Oryza sativa, UniProt Q0JBA9 1-250). Nature of the assay: protein-binding microarray (RPBM); PBS, 2% BSA, 51.3 ng/ul salmon testes DNA, 50 uM zinc acetate, 200 nM TF, 25 C, 1 h; high values mean tight binding. The settings on record: protein: recombinant; tags: N-terminal polyhistidine and DsRed monomer fusion (pET32a); label: CyDye5-dUTP incorporated in the synthesized complementary strand; 3' TTTTT single-stranded linker to array surface; dsDNA, one strand shown. The method, boiled down:
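Ni–NTA purification followed expression in E. coli BL21-CodonPlus of transcription factors fused N-terminally to a polyhistidine tag and DsRed. At 200 nM in PBS with 2% BSA, salmon testes DNA and 50 µM zinc acetate, the protein was incubated for 1 h at 25 °C with a custom Agilent array that had been primer-extended with Cy5-dUTP and blocked with 2% BSA. After washing, the array was read on an Axon 4000B scanner. The binding signal is per-feature fluorescence intensity in arbitrary units.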
With “GCCAGCTACCATCTTCTTTCTTCCCTTTTCTTCCCGAACGCGGAGTCACCTAGTGCAG”, the binding signal is 9080 fluorescence intensity (a.u.). For the sequence “GGCAAATTCTAGTCATCTATATAAGCAACATAAACATACACGGAGTCACCTAGTGCAG”, the binding signal is 8900 fluorescence intensity (a.u.). “CATGAGTTTCCGTGTACAACTTTGATCGTCCGTTTTATTTCGGAGTCACCTAGTGCAG”: the binding signal is 9570 fluorescence intensity (a.u.). Take “CATTACCATACATGGCTGCTAGACCCTACACACGTACTGTCGGAGTCACCTAGTGCAG”: the binding signal is 8950 fluorescence intensity (a.u.). As for “ATTGGAAGTGGTCTTCTGGATTGTTCTAGGCCTGCTTATGCGGAGTCACCTAGTGCAG”, the figure is 8180 fluorescence intensity (a.u.); as for “CTCACGCTCTCTCGTCCCCTCCATGCACGGCCTAGCTACCCGGAGTCACCTAGTGCAG”, 11200 fluorescence intensity (a.u.).

“GAGAAAATGTTGCCACCTTTTGTTGGTTCGCCGTGGTGGCCGGAGTCACCTAGTGCAG”: the binding signal was 8440 fluorescence intensity (a.u.). As for “GGTTTGTTAATATAGTATCAAGTTCATTTGGCTTATTAAACGGAGTCACCTAGTGCAG”, the figure is 8270 fluorescence intensity (a.u.); as for “ATTTCTTCGTCTCATCTTCTGATAATTTACTCCAGTTTACCGGAGTCACCTAGTGCAG”, 9630 fluorescence intensity (a.u.); as for “TCCTCCTCTGCCTCTGCCTCCAGGCCGCCTCCACACCACTCGGAGTCACCTAGTGCAG”, 8780 fluorescence intensity (a.u.).

Turning to “GTGCGTATGTGTTGTGAGTATCTGTGTTGTACTGTGTAATCGGAGTCACCTAGTGCAG”, the binding signal was 10300 fluorescence intensity (a.u.).

Regarding “CCATTGCCATCTCTAGGAACAACACCAATGCCGAGATCAGCGGAGTCACCTAGTGCAG”, the binding signal was 8260 fluorescence intensity (a.u.).

On to “CTTTGATCATGTTCTCATACTTCTCAGCGTCCAATCATACCGGAGTCACCTAGTGCAG”, for which the binding signal was 8040 fluorescence intensity (a.u.). For the sequence “GGGCAACTTCTCTCAGTTTGTTCTTGGGCCTGTTATTTAACGGAGTCACCTAGTGCAG”, the binding signal is 11000 fluorescence intensity (a.u.).

For the sequence “CCCGTTTCGTCGTGCCGTCGTCGTGTCCTCTCTTCAGCCACGGAGTCACCTAGTGCAG”, the binding signal was 8500 fluorescence intensity (a.u.). “GTTTGATCTATTATTTGCAAATCTTGTCAGTTGTAGGATTCGGAGTCACCTAGTGCAG”: the binding signal is 12200 fluorescence intensity (a.u.). In the case of “ATGTATGTATGTATGTGTGTGTGTGTATATATATATATATCGGAGTCACCTAGTGCAG”, the binding signal was 10600 fluorescence intensity (a.u.). As for “ATTCGTTCTGGTTTTCTTCGGGGTTTATTGATTCACGCGACGGAGTCACCTAGTGCAG”, the figure is 18200 fluorescence intensity (a.u.). On to “TGTTTTACCTTGAGTTATCTGATGTTGACTGGTGTGTACTCGGAGTCACCTAGTGCAG”, for which the binding signal is 10100 fluorescence intensity (a.u.). As for “TTTAGGTTATAATGCTACACATTTCTTTTGGGGTTCTATTCGGAGTCACCTAGTGCAG”, the figure is 15800 fluorescence intensity (a.u.); as for “CCATTCAAGTTTATTTTTTCTATGGTTGGTTCTTGTATGCCGGAGTCACCTAGTGCAG”, 8760 fluorescence intensity (a.u.). As for “CCGTCGCGGTCGCCACTCCCTGCCACCACGCCCTTCATCGCGGAGTCACCTAGTGCAG”, the figure is 9050 fluorescence intensity (a.u.).

On to “GTCGTTTTTGTTTGACGATTTGTGTCAAGTAATCCTTTTGCGGAGTCACCTAGTGCAG”, for which the binding signal is 9680 fluorescence intensity (a.u.).

Consider “ATTAATTATTTTCGTATCATTTGATTTATGTATACATATACGGAGTCACCTAGTGCAG”, for which the binding signal is 8140 fluorescence intensity (a.u.).

With “GTGCTTTGGGCGAAGCCGAGGGGTGGCCGGGGAAGGAGATCGGAGTCACCTAGTGCAG”, the binding signal is 8750 fluorescence intensity (a.u.). As for “CCATTTCCCGTCGTCTCCACCTCACCACCTCTCTAAACAACGGAGTCACCTAGTGCAG”, the figure is 11600 fluorescence intensity (a.u.); as for “CACGCTCACGTTGCCGCACCTGTCCGGGCAGCCCGCCGGCCGGAGTCACCTAGTGCAG”, 10300 fluorescence intensity (a.u.).

As for “CCCTGATATTTTCCCCTTCTCAGTCCTCACACGTTCTCTTCGGAGTCACCTAGTGCAG”, the binding signal was 8040 fluorescence intensity (a.u.). Turning to “CAATGTTATGGAATGGATTATCTCTTTTTTTTTTCAAACCCGGAGTCACCTAGTGCAG”, the binding signal is 8420 fluorescence intensity (a.u.). As for “AGGTCCCTAGTTCTGTTTTTTTCTGGTAGTCGGTCCGGTCCGGAGTCACCTAGTGCAG”, the figure is 9260 fluorescence intensity (a.u.); as for “GCTAAGGGGATTTTTGGGTTTGGCTGGGTATTACAGGAAACGGAGTCACCTAGTGCAG”, 11200 fluorescence intensity (a.u.). Consider “CTCTCAGGTTGGGGCAATTGGTATTCCATAGTTTTCTTCACGGAGTCACCTAGTGCAG”, for which the binding signal was 10000 fluorescence intensity (a.u.).

For “CTCCACTCCTCGCGCCGTACTCTCCATGCCCTCGTCTTGACGGAGTCACCTAGTGCAG”, the binding signal was 8860 fluorescence intensity (a.u.). With “CATCCATTCCCCTCCCCTCCCGTCATCCACTCATCCCGTGCGGAGTCACCTAGTGCAG”, the binding signal was 8030 fluorescence intensity (a.u.).

On to “CACTCGCCACCGCCGCCCACCCGCAACTGCCGCCGACTCCCGGAGTCACCTAGTGCAG”, for which the binding signal is 10800 fluorescence intensity (a.u.).

On to “CTTCAACCATTCTCCTCCTACTGCTTCCTCTTTCTTCTTCCGGAGTCACCTAGTGCAG”, for which the binding signal was 9710 fluorescence intensity (a.u.). With “GGAGGGAGTCGCGGGTGCAGTGTTCTGGTTCGGATCTGAGCGGAGTCACCTAGTGCAG”, the binding signal is 8960 fluorescence intensity (a.u.).

Consider “ACCCTTTTCCTCGTATGGTAGTGACTCGTCTCGTTTGCTTCGGAGTCACCTAGTGCAG”, for which the binding signal is 8170 fluorescence intensity (a.u.). As for “AGACCCTTAGTGCCTGTTTGTTTCCTCTTCGCCTTTGCATCGGAGTCACCTAGTGCAG”, the figure is 9100 fluorescence intensity (a.u.); as for “CGAATATCCTTTACTTTAGTTTCACACATCCTCTATCATACGGAGTCACCTAGTGCAG”, 9840 fluorescence intensity (a.u.); as for “AGCACATCCTCGACTTCTTCAACACCTGGAGCCGCAAGGCCGGAGTCACCTAGTGCAG”, 9430 fluorescence intensity (a.u.). As for “GGGAAATTGGGTAATTAATTAATTATGTGAAAGGGGTGGGCGGAGTCACCTAGTGCAG”, the figure is 12800 fluorescence intensity (a.u.).
